# US20100324150A1, “HYPERBRANCHED POLYGLYCEROL FOR IMPROVING HEART FUNCTION” (THE UNIVERSITY OF BRITISH COLUMBIA, priority 2007, published 2010)
# At least one structure is not confirmed: it was looked up by name or label, or the drawing left a doubt.
# System: H9C2 cells
# Experiment: Lactate production by H9C2 cells
# Type: cell-based, rat
# Conditions: relative to control
# Protocol: H9C2 (2-1) embryonic rat heart cells (passage 12, obtained from American Type Culture Collection, Manassas, Va.) were cultured in Dulbecco's modified Eagle's medium (DMEM—Gibco-Invitrogen) containing 10% fetal bovine serum (FBS) and 100 U/ml penicillin-streptomycin at 37° C. in a humidified atmosphere containing 5% CO2. The cells were subcultured into 60 mm culture dishes when 80% confluent (before fusion into myotubes occurred) and were differentiated toward a cardiac phenotype by exposure to DMEM containing 1% horse serum and 0.1 μM all-trans retinoic acid (Sigma) for four days (Menard et al 1999. J Biol Chem 274:29063-70; Bronstrom et al 2000. Int J. Biochem Cell Biol 32:993-1006). Retinoic acid was prepared in the dark in DMSO and stored at −20° C. […]
# To screen for metabolic actions of dHPGs, H9C2 cells were exposed to a range of dHPG concentration (0.001 to 100 μM). […] Viability of cells was assessed by visual inspection of cell morphology using a microscope and by assessment of mitochondrial integrity (MTS—Promega). Accumulation of lactate in the bathing solution over 6 hrs was measured using a diagnostic kit (Sigma, St. Louis, Mo.). Lactate accumulation was expressed as μmol/mg protein. Protein content of the cultures was determined using a commercial Bicinchoninic Acid (BCA) protein assay kit from Sigma (St. Louis, Mo.). […]
smiles,measurement,value
"O=C(O)C(Cl)Cl [DCA, dichloroacetate]",Lactate concentration / production in H9C2 cells (in words),reduction in lactate concentration
